# Measured values from the supplement of paper PMC8728848.
# The other results are listed elsewhere or left out.
# Legend:
# Assay in all cases: glycan array binding signal (z-score within array); higher = stronger binding
# Conditions in all cases: glycan notation: IUPAC condensed, linker removed
# [1] = biological target: Man(a1-3)[Man(a1-6)]Man(a1-6)[Man(a1-3)]Man
# Method in brief: (§1)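 The Consortium for Functional Glycomics database supplied 3228 glycan arrays, of which those lacking an available protein sequence were dropped. The binding signal, a within-array Z-score, was averaged across arrays of the same protein sequence and across linkers. Negative scores can be read as non-binding.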
# [2] = biological target: Man(a1-3)[Man(a1-6)]Man(a1-6)[Man(a1-3)]Man(b1-4)GlcNAc(b1-4)GlcNAc
# Method in brief: as §1
# [3] = biological target: Man(a1-3)[Man(a1-6)]Man(b1-4)GlcNAc(b1-4)GlcNAc
# Method in brief: as §1
# [4] = biological target: Man(a1-3)[Man(a1-6)]Man(b1-4)GlcNAc(b1-4)[Fuc(a1-6)]GlcNAc
# Method in brief: as §1
# Man(a1-6)Man = biological target: Man(a1-6)Man
# Method in brief: as §1
# Man(b1-4)GlcNAc = biological target: Man(b1-4)GlcNAc
# Method in brief: as §1
# MurNAc(b1-4)GlcNAc = biological target: MurNAc(b1-4)GlcNAc
# Method in brief: as §1
# Neu5Ac(a2-3)Gal = biological target: Neu5Ac(a2-3)Gal
# Method in brief: as §1
# [5] = biological target: Neu5Ac(a2-3)Gal(b1-3)GalNAc
# Method in brief: as §1
# [6] = biological target: Neu5Ac(a2-3)Gal(b1-3)GalNAc(b1-3)Gal(a1-4)Gal(b1-4)Glc
# Method in brief: as §1
# [7] = biological target: Neu5Ac(a2-3)Gal(b1-3)GalNAc(b1-4)Gal(b1-4)Glc
# Method in brief: as §1
# [8] = biological target: Neu5Ac(a2-3)Gal(b1-3)GalNAc(b1-4)[Neu5Ac(a2-3)]Gal(b1-4)Glc
# Method in brief: as §1
# [9] = biological target: Neu5Ac(a2-3)Gal(b1-3)GalNAc(b1-4)[Neu5Ac(a2-8)Neu5Ac(a2-3)]Gal(b1-4)Glc
# Method in brief: as §1
# [10] = biological target: Neu5Ac(a2-3)Gal(b1-3)GalNAc6S
# Method in brief: as §1
# [11] = biological target: Neu5Ac(a2-3)Gal(b1-3)GlcNAc
# Method in brief: as §1
# [12] = biological target: Neu5Ac(a2-3)Gal(b1-3)GlcNAc(b1-2)Man
# Method in brief: as §1
# [13] = biological target: Neu5Ac(a2-3)Gal(b1-3)GlcNAc(b1-2)Man(a1-3)[GlcNAc(b1-4)][Neu5Ac(a2-3)Gal(b1-3)GlcNAc(b1-2)Man(a1-6)]Man(b1-4)GlcNAc(b1-4)GlcNAc
# Method in brief: as §1
# [14] = biological target: Neu5Ac(a2-3)Gal(b1-3)GlcNAc(b1-2)Man(a1-3)[Neu5Ac(a2-3)Gal(b1-3)GlcNAc(b1-2)Man(a1-6)]Man(b1-4)GlcNAc(b1-4)GlcNAc
# Method in brief: as §1
# [15] = biological target: Neu5Ac(a2-3)Gal(b1-3)GlcNAc(b1-2)[Neu5Ac(a2-3)Gal(b1-3)GlcNAc(b1-4)]Man(a1-6)[Neu5Ac(a2-3)Gal(b1-3)GlcNAc(b1-2)Man(a1-3)]Man(b1-4)GlcNAc(b1-4)GlcNAc
# Method in brief: as §1
# [16] = biological target: Neu5Ac(a2-3)Gal(b1-3)GlcNAc(b1-3)Gal(b1-3)GlcNAc
# Method in brief: as §1
# [17] = biological target: Neu5Ac(a2-3)Gal(b1-3)GlcNAc(b1-3)Gal(b1-4)GlcNAc
# Method in brief: as §1
# [18] = biological target: Neu5Ac(a2-3)Gal(b1-3)GlcNAc(b1-3)GalNAc
# Method in brief: as §1
# [19] = biological target: Neu5Ac(a2-3)Gal(b1-3)GlcNAc(b1-6)GalNAc
# Method in brief: as §1
# [20] = biological target: Neu5Ac(a2-3)Gal(b1-3)GlcNAc6S
# Method in brief: as §1
# [21] = biological target: Neu5Ac(a2-3)Gal(b1-3)[Fuc(a1-4)]GlcNAc
# Method in brief: as §1
# [22] = biological target: Neu5Ac(a2-3)Gal(b1-3)[Fuc(a1-4)]GlcNAc(b1-3)Gal(b1-3)[Fuc(a1-4)]GlcNAc
# Method in brief: as §1
# [23] = biological target: Neu5Ac(a2-3)Gal(b1-3)[Fuc(a1-4)]GlcNAc(b1-3)Gal(b1-4)[Fuc(a1-3)]GlcNAc
# Method in brief: as §1
# [24] = biological target: Neu5Ac(a2-3)Gal(b1-3)[GlcNAc(b1-6)]GalNAc
# Method in brief: as §1
# [25] = biological target: Neu5Ac(a2-3)Gal(b1-3)[Neu5Ac(a2-6)]GalNAc
# Method in brief: as §1
# [26] = biological target: Neu5Ac(a2-3)Gal(b1-3)[Neu5Ac(a2-6)]GlcNAc(b1-3)[Fuc(a1-3)[Gal(b1-4)]GlcNAc(b1-6)]Gal(b1-4)Glc
# Method in brief: as §1
# [27] = biological target: Neu5Ac(a2-3)Gal(b1-3)]Neu5Ac(a2-3)Gal(b1-4)]GlcNAc
# Method in brief: as §1
# Neu5Ac(a2-3)Gal(b1-4)Glc = biological target: Neu5Ac(a2-3)Gal(b1-4)Glc
# Method in brief: as §1
# [28] = biological target: Neu5Ac(a2-3)Gal(b1-4)GlcNAc
# Method in brief: as §1
# [29] = biological target: Neu5Ac(a2-3)Gal(b1-4)GlcNAc(b1-2)Man
# Method in brief: as §1
# [30] = biological target: Neu5Ac(a2-3)Gal(b1-4)GlcNAc(b1-2)Man(a1-3)[GlcNAc(b1-4)][Neu5Ac(a2-3)Gal(b1-4)GlcNAc(b1-2)Man(a1-6)]Man(b1-4)GlcNAc(b1-4)GlcNAc
# Method in brief: as §1
# [31] = biological target: Neu5Ac(a2-3)Gal(b1-4)GlcNAc(b1-2)Man(a1-3)[Neu5Ac(a2-3)Gal(b1-4)GlcNAc(b1-2)Man(a1-6)]Man(b1-4)GlcNAc(b1-4)GlcNAc
# Method in brief: as §1
# [32] = biological target: Neu5Ac(a2-3)Gal(b1-4)GlcNAc(b1-2)Man(a1-3)[Neu5Ac(a2-3)Gal(b1-4)GlcNAc(b1-2)Man(a1-6)]Man(b1-4)GlcNAc(b1-4)[Fuc(a1-6)]GlcNAc
# Method in brief: as §1
# [33] = biological target: Neu5Ac(a2-3)Gal(b1-4)GlcNAc(b1-2)Man(a1-3)[Neu5Ac(a2-6)Gal(b1-4)GlcNAc(b1-2)Man(a1-6)]Man(b1-4)GlcNAc(b1-4)GlcNAc
# Method in brief: as §1
binder,measurement,setting,value
EUL D1A (Oryza sativa) (protein) MFGFGHHHNQAPAAPSDPNQIFKIFCRANENYCLTVRDSAVVLAPVNPKDEHQHWFKDMRFSTKVKDGEGMPAFALVNKATGLAVKHSLGQSHPVKLVPFNPEYEDASVLWTESKDVGKGFRCIRMVNNTRLNLDAFHGDKDHGGVRDGTTVVLWEWCKGDNQSWKILPWGPEAHSSSPGAATACTIGGVPVHTVRVFSAAGEDYCLTVRNGTACLAPKNPRDDYQHWIKDMRHSNKIRDEEGYPAFALVNKVTGEAIKHSTGQGHPVKLVPYNPEYQDESVLWTESKDVGKGFRCIRMVNNIYLNFDAFHGDKDHGGIHDGTEIVLWKWCEGDNQRWKILPWILEQKLISEEDLNSAVDHHHHHH,glycan array binding signal (z-score),[1],-0.067
same,glycan array binding signal (z-score),[2],0.056
same,glycan array binding signal (z-score),[3],0.386
same,glycan array binding signal (z-score),[4],1.1
same,glycan array binding signal (z-score),Man(a1-6)Man,-0.681
same,glycan array binding signal (z-score),Man(b1-4)GlcNAc,1.55
same,glycan array binding signal (z-score),MurNAc(b1-4)GlcNAc,-0.58
same,glycan array binding signal (z-score),Neu5Ac(a2-3)Gal,-0.674
same,glycan array binding signal (z-score),[5],-0.87
same,glycan array binding signal (z-score),[6],0.361
same,glycan array binding signal (z-score),[7],-1.15
same,glycan array binding signal (z-score),[8],-0.286
same,glycan array binding signal (z-score),[9],-1.6
same,glycan array binding signal (z-score),[10],2.32
same,glycan array binding signal (z-score),[11],0.423
same,glycan array binding signal (z-score),[12],-1.36
same,glycan array binding signal (z-score),[13],1.07
same,glycan array binding signal (z-score),[14],0.151
same,glycan array binding signal (z-score),[15],1.46
same,glycan array binding signal (z-score),[16],-0.66
same,glycan array binding signal (z-score),[17],1.79
same,glycan array binding signal (z-score),[18],-0.63
same,glycan array binding signal (z-score),[19],-1.15
same,glycan array binding signal (z-score),[20],0.618
same,glycan array binding signal (z-score),[21],-1.34
same,glycan array binding signal (z-score),[22],-0.396
same,glycan array binding signal (z-score),[23],-0.745
same,glycan array binding signal (z-score),[24],-1.65
same,glycan array binding signal (z-score),[25],-0.134
same,glycan array binding signal (z-score),[26],-0.238
same,glycan array binding signal (z-score),[27],-0.124
same,glycan array binding signal (z-score),Neu5Ac(a2-3)Gal(b1-4)Glc,0.016
same,glycan array binding signal (z-score),[28],0.048
same,glycan array binding signal (z-score),[29],-0.333
same,glycan array binding signal (z-score),[30],0.87
same,glycan array binding signal (z-score),[31],-0.59
same,glycan array binding signal (z-score),[32],0.798
same,glycan array binding signal (z-score),[33],-0.359

# Another view of part of the listing above:
binder | measurement | setting | value
EUL D1A (Oryza sativa) (protein) MFGFGHHHNQAPAAPSDPNQIFKIFCRANENYCLTVRDSAVVLAPVNPKDEHQHWFKDMRFSTKVKDGEGMPAFALVNKATGLAVKHSLGQSHPVKLVPFNPEYEDASVLWTESKDVGKGFRCIRMVNNTRLNLDAFHGDKDHGGVRDGTTVVLWEWCKGDNQSWKILPWGPEAHSSSPGAATACTIGGVPVHTVRVFSAAGEDYCLTVRNGTACLAPKNPRDDYQHWIKDMRHSNKIRDEEGYPAFALVNKVTGEAIKHSTGQGHPVKLVPYNPEYQDESVLWTESKDVGKGFRCIRMVNNIYLNFDAFHGDKDHGGIHDGTEIVLWKWCEGDNQRWKILPWILEQKLISEEDLNSAVDHHHHHH | glycan array binding signal (z-score) | [26] | -0.238
same | glycan array binding signal (z-score) | [27] | -0.124
same | glycan array binding signal (z-score) | Neu5Ac(a2-3)Gal(b1-4)Glc | 0.016
